Measured values from article PMC9861611.
These are yes or no findings as the source states them, for the method shown. In cells and extracts the contact can be indirect. Some results given as binding are weak or reduced against the parent protein; the word gives no strength. Tags and fused reporters may be left off the sequences shown.

Target: T1, AGIA-FLAG-KCNB1 (human) (UniProt Q14721)
T1 sequence: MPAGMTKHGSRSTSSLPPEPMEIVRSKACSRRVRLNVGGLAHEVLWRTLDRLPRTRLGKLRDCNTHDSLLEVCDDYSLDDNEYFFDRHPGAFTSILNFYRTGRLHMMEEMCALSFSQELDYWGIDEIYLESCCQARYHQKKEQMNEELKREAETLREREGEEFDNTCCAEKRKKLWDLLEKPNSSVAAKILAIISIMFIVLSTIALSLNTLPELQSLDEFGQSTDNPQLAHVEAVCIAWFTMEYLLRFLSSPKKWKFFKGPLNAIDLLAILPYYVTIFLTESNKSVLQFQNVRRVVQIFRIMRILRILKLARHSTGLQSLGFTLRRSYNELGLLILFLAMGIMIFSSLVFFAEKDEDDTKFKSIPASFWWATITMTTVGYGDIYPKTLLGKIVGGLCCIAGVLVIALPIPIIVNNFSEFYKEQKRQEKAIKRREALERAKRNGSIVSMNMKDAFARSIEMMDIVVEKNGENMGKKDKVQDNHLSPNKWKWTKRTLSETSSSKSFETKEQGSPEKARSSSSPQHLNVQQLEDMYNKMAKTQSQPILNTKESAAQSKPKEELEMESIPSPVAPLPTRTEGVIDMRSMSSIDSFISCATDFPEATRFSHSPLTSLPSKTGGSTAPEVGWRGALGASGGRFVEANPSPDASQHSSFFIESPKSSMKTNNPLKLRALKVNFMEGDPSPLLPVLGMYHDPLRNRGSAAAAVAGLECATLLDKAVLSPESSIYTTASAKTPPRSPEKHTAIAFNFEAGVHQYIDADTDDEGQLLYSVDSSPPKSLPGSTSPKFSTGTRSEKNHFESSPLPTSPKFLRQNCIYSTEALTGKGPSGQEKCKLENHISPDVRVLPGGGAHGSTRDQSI
Assay: co-IP; AGIA-FLAG-KCNB1 and FLAG-KCNS3 co-synthesized in a wheat cell-free system with asolectin liposomes; washed proteoliposomes solubilized with 1% n-dodecyl-β-D-maltoside, 0.2% cholesteryl hemisuccinate, 20 mM Hepes-NaOH pH 7.2, 150 mM NaCl; IP with anti-AGIA monoclonal antibody on Dynabeads Protein G, 4 °C, 1 h; Western blot with anti-DYKDDDDK antibody

binding: binds
B1: FLAG-KCNS3 (protein, UniProt Q9BQ31 1-491)
chain: MVFGEFFHRPGQDEELVNLNVGGFKQSVDQSTLLRFPHTRLGKLLTCHSEEAILELCDDYSVADKEYYFDRNPSLFRYVLNFYYTGKLHVMEELCVFSFCQEIEYWGINELFIDSCCSNRYQERKEENHEKDWDQKSHDVSTDSSFEESSLFEKELEKFDTLRFGQLRKKIWIRMENPAYCLSAKLIAISSLSVVLASIVAMCVHSMSEFQNEDGEVDDPVLEGVEIACIAWFTGELAVRLAAAPCQKKFWKNPLNIIDFVSIIPFYATLAVDTKEEESEDIENMGKVVQILRLMRIFRILKLARHSVGLRSLGATLRHSYHEVGLLLLFLSVGISIFSVLIYSVEKDDHTSSLTSIPICWWWATISMTTVGYGDTHPVTLAGKLIASTCIICGILVVALPITIIFNKFSKYYQKQKDIDVDQCSEDAPEKCHELPYFNIRDIYAQRMHTFITSLSSVGIVVSDPDSTDASSIEDNEDICNTTSLENCTAK
